The values that follow come from patent US9783796B2, “Amidase, gene for the same, vector, transformant, and method for production of optically active carboxylic acid amide and optically active carboxylic acid by using any one of those items” (KANEKA CORPORATION, priority 2007, dated 2017).

The data set is described as follows: Optimum pH, optimum temperature and thermal stability of the amidase reaction of purified HCS. The class given is biochemical. The note with it: N-benzylnipecotamide as substrate; for Optimum reaction pH: 1 hour at 30° C.; for Optimum reaction temperature: 1 hour at each temperature. The procedure:
The Optimum pH and optimum temperature of an amidase reaction of the purified enzyme obtained in Example 1, and thermal stability of the enzyme were determined by quantifying N-benzylnipecotic acid produced in the hydrolysis reaction using N-benzylnipecotamide as a substrate, by HPLC. For determination of the optimum pH, the reaction was allowed to proceed at each pH for 1 hour at 30° C., and stopped by addition of acetonitrile. The resultant solution was analyzed under the high speed liquid chromatography analysis conditions A described in Example 1. For determination of the optimum temperature, the reaction was allowed to proceed at each temperature for 1 hour, and stopped by addition of acetonitrile. The resultant solution was analyzed under the high speed liquid chromatography analysis conditions A described in Example 1. For determining the thermal stability, after incubation at each temperature for 30 minutes, the reaction was allowed to proceed for 1 hour, and stopped by addition of acetonitrile. The resultant solution was analyzed under the high speed liquid chromatography analysis conditions A described in Example 1.

B1: HCS: amidase purified from Cupriavidus sp. KNK-J915 strain (FERM BP-10739), amino acid sequence SEQ ID NO:1 (protein, listed as Cupriavidus sp.)
chain: MPTDIQTLQTRLHDGAVSRADVIAQAAQHAQQPDAHAVFLHTTFDTAAQVAKAADAACLAGKPLHPLAGLPVSVKDLFNIAGEASRAGSPVRSDALAATADATVVRRLRESGAALVGRTNMTEFAFSGVGINPHFGTPVNPADKQVARIPGGSSSGAAVSVALGLAVAGLGSDTGGSIRIPAALCGLTGFKPTARRVPLDGAFPLSYTLDTACAMARTVQDCVLVDSVIADQAVLPVIKGAAGIRLAIPRQVLLDDLDDTVARAFDRALGRLSAAGVQIEHIDLPELAELATINASGGFTAAEAHAIHRHVLATRREQYDPRVASRIDRGAAMSAADYVDLMRARLDWITRVAARLEGFDAVACPTVPMVAPPIAPLVADDALFFHTNALLLRNTSAFNFLDGCSISLPCHQPDELPVGLMLSHGALRDAQLLGTAIALESIVKPAA
For the molecule B1, the “Optimum reaction pH” value is on record as “pH 8.0 to 9.0” and the Optimum reaction temperature came out at 50 °C. Under “listed as SEQ ID NO:1”, the “Optimum reaction pH” value fell in the range of 8.0 to 9.0 and the Optimum reaction temperature was determined as 50 °C.
